Article PMC7265490
Results are given in words; binding and its absence hold for the method and conditions named. In cells and extracts the contact can be indirect. Some entries that bind do so weakly or less than the wild type.

By UniProt entry, the sequences of proteins in these tests, tags left out. Where a name states a change or a piece, a line headed by the entry shows the natural chain unless it says otherwise.
UniProt Q9UKV8: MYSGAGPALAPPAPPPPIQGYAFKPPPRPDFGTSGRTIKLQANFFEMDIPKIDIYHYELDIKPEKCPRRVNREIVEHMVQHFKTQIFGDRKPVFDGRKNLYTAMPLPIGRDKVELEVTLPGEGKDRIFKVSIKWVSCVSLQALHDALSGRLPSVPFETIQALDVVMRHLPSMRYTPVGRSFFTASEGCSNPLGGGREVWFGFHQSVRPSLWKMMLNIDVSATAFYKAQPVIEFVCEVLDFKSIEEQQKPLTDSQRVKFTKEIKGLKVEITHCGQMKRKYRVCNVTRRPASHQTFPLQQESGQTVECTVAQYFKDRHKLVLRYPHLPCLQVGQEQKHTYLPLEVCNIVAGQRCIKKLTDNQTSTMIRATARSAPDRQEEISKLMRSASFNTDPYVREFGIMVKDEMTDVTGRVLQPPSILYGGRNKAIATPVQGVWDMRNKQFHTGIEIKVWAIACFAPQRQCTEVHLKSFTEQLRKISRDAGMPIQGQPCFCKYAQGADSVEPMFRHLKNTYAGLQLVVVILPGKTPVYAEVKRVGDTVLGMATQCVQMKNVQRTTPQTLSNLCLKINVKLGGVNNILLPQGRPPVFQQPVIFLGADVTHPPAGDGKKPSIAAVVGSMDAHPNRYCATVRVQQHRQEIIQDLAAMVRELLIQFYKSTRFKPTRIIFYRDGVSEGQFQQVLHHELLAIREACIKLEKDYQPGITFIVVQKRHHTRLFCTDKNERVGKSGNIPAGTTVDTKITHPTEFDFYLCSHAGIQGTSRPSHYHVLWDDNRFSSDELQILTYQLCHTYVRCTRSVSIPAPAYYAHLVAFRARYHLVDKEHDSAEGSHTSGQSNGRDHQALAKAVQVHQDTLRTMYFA

How the values were obtained:
[1] = biological target: FLAG-tagged AGO2-WT (wild-type Argonaute 2) (UniProt Q9UKV8); test: co-IP; FLAG-tagged AGO2 constructs or GFP transfected into HEK293T; lysis in modRIPA buffer 48 h after transfection; anti-FLAG M2 magnetic beads, 4 °C overnight; washed five times with TBS; beads with or without RNase A/T1 (20 min, room temperature); Western blot for TUT4, TUT7 and AGO2
[2] = biological target: FLAG-tagged AGO2-F2L3 (AGO2 PAZ mutant, F294A and L339A) (UniProt Q9UKV8); test: as above

binding [1]: binds
binding [2]: binds
B1: endogenous TUT7 (ZCCHC6/TENT3B/PAPD6) (enzyme, UniProt Q5VYS8 1-1495)
chain: MGDTAKPYFVKRTKDRGTMDDDDFRRGHPQQDYLIIDDHAKGHGSKMEKGLQKKKITPGNYGNTPRKGPCAVSSNPYAFKNPIYSQPAWMNDSHKDQSKRWLSDEHTGNSDNWREFKPGPRIPVINRQRKDSFQENEDGYRWQDTRGCRTVRRLFHKDLTSLETTSEMEAGSPENKKQRSRPRKPRKTRNEENEQDGDLEGPVIDESVLSTKELLGLQQAEERLKRDCIDRLKRRPRNYPTAKYTCRLCDVLIESIAFAHKHIKEKRHKKNIKEKQEEELLTTLPPPTPSQINAVGIAIDKVVQEFGLHNENLEQRLEIKRIMENVFQHKLPDCSLRLYGSSCSRLGFKNSDVNIDIQFPAIMSQPDVLLLVQECLKNSDSFIDVDADFHARVPVVVCREKQSGLLCKVSAGNENACLTTKHLTALGKLEPKLVPLVIAFRYWAKLCSIDRPEEGGLPPYVFALMAIFFLQQRKEPLLPVYLGSWIEGFSLSKLGNFNLQDIEKDVVIWEHTDSAAGDTGITKEEAPRETPIKRGQVSLILDVKHQPSVPVGQLWVELLRFYALEFNLADLVISIRVKELVSRELKDWPKKRIAIEDPYSVKRNVARTLNSQPVFEYILHCLRTTYKYFALPHKITKSSLLKPLNAITCISEHSKEVINHHPDVQTKDDKLKNSVLAQGPGATSSAANTCKVQPLTLKETAESFGSPPKEEMGNEHISVHPENSDCIQADVNSDDYKGDKVYHPETGRKNEKEKVGRKGKHLLTVDQKRGEHVVCGSTRNNESESTLDLEGFQNPTAKECEGLATLDNKADLDGESTEGTEELEDSLNHFTHSVQGQTSEMIPSDEEEEDDEEEEEEEEPRLTINQREDEDGMANEDELDNTYTGSGDEDALSEEDDELGEAAKYEDVKECGKHVERALLVELNKISLKEENVCEEKNSPVDQSDFFYEFSKLIFTKGKSPTVVCSLCKREGHLKKDCPEDFKRIQLEPLPPLTPKFLNILDQVCIQCYKDFSPTIIEDQAREHIRQNLESFIRQDFPGTKLSLFGSSKNGFGFKQSDLDVCMTINGLETAEGLDCVRTIEELARVLRKHSGLRNILPITTAKVPIVKFFHLRSGLEVDISLYNTLALHNTRLLSAYSAIDPRVKYLCYTMKVFTKMCDIGDASRGSLSSYAYTLMVLYFLQQRNPPVIPVLQEIYKGEKKPEIFVDGWNIYFFDQIDELPTYWSECGKNTESVGQLWLGLLRFYTEEFDFKEHVISIRRKSLLTTFKKQWTSKYIVIEDPFDLNHNLGAGLSRKMTNFIMKAFINGRRVFGIPVKGFPKDYPSKMEYFFDPDVLTEGELAPNDRCCRICGKIGHFMKDCPMRRKVRRRRDQEDALNQRYPENKEKRSKEDKEIHNKYTEREVSTKEDKPIQCTPQKAKPMRAAADLGREKILRPPVEKWKRQDDKDLREKRCFICGREGHIKKECPQFKGSSGSLSSKYMTQGKASAKRTQQES
